These results are taken from the supplement of paper PMC10849652.

Sequences of proteins named here, by UniProt entry; tags and fusion partners are left off. A change or cut given only in a name is not applied to a line headed by its entry.
UniProt Q9NRW3: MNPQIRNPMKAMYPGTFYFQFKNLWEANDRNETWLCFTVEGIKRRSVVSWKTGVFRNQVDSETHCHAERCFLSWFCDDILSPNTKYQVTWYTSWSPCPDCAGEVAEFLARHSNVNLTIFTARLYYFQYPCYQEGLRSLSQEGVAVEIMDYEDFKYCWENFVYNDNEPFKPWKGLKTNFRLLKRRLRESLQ
UniProt Q01484: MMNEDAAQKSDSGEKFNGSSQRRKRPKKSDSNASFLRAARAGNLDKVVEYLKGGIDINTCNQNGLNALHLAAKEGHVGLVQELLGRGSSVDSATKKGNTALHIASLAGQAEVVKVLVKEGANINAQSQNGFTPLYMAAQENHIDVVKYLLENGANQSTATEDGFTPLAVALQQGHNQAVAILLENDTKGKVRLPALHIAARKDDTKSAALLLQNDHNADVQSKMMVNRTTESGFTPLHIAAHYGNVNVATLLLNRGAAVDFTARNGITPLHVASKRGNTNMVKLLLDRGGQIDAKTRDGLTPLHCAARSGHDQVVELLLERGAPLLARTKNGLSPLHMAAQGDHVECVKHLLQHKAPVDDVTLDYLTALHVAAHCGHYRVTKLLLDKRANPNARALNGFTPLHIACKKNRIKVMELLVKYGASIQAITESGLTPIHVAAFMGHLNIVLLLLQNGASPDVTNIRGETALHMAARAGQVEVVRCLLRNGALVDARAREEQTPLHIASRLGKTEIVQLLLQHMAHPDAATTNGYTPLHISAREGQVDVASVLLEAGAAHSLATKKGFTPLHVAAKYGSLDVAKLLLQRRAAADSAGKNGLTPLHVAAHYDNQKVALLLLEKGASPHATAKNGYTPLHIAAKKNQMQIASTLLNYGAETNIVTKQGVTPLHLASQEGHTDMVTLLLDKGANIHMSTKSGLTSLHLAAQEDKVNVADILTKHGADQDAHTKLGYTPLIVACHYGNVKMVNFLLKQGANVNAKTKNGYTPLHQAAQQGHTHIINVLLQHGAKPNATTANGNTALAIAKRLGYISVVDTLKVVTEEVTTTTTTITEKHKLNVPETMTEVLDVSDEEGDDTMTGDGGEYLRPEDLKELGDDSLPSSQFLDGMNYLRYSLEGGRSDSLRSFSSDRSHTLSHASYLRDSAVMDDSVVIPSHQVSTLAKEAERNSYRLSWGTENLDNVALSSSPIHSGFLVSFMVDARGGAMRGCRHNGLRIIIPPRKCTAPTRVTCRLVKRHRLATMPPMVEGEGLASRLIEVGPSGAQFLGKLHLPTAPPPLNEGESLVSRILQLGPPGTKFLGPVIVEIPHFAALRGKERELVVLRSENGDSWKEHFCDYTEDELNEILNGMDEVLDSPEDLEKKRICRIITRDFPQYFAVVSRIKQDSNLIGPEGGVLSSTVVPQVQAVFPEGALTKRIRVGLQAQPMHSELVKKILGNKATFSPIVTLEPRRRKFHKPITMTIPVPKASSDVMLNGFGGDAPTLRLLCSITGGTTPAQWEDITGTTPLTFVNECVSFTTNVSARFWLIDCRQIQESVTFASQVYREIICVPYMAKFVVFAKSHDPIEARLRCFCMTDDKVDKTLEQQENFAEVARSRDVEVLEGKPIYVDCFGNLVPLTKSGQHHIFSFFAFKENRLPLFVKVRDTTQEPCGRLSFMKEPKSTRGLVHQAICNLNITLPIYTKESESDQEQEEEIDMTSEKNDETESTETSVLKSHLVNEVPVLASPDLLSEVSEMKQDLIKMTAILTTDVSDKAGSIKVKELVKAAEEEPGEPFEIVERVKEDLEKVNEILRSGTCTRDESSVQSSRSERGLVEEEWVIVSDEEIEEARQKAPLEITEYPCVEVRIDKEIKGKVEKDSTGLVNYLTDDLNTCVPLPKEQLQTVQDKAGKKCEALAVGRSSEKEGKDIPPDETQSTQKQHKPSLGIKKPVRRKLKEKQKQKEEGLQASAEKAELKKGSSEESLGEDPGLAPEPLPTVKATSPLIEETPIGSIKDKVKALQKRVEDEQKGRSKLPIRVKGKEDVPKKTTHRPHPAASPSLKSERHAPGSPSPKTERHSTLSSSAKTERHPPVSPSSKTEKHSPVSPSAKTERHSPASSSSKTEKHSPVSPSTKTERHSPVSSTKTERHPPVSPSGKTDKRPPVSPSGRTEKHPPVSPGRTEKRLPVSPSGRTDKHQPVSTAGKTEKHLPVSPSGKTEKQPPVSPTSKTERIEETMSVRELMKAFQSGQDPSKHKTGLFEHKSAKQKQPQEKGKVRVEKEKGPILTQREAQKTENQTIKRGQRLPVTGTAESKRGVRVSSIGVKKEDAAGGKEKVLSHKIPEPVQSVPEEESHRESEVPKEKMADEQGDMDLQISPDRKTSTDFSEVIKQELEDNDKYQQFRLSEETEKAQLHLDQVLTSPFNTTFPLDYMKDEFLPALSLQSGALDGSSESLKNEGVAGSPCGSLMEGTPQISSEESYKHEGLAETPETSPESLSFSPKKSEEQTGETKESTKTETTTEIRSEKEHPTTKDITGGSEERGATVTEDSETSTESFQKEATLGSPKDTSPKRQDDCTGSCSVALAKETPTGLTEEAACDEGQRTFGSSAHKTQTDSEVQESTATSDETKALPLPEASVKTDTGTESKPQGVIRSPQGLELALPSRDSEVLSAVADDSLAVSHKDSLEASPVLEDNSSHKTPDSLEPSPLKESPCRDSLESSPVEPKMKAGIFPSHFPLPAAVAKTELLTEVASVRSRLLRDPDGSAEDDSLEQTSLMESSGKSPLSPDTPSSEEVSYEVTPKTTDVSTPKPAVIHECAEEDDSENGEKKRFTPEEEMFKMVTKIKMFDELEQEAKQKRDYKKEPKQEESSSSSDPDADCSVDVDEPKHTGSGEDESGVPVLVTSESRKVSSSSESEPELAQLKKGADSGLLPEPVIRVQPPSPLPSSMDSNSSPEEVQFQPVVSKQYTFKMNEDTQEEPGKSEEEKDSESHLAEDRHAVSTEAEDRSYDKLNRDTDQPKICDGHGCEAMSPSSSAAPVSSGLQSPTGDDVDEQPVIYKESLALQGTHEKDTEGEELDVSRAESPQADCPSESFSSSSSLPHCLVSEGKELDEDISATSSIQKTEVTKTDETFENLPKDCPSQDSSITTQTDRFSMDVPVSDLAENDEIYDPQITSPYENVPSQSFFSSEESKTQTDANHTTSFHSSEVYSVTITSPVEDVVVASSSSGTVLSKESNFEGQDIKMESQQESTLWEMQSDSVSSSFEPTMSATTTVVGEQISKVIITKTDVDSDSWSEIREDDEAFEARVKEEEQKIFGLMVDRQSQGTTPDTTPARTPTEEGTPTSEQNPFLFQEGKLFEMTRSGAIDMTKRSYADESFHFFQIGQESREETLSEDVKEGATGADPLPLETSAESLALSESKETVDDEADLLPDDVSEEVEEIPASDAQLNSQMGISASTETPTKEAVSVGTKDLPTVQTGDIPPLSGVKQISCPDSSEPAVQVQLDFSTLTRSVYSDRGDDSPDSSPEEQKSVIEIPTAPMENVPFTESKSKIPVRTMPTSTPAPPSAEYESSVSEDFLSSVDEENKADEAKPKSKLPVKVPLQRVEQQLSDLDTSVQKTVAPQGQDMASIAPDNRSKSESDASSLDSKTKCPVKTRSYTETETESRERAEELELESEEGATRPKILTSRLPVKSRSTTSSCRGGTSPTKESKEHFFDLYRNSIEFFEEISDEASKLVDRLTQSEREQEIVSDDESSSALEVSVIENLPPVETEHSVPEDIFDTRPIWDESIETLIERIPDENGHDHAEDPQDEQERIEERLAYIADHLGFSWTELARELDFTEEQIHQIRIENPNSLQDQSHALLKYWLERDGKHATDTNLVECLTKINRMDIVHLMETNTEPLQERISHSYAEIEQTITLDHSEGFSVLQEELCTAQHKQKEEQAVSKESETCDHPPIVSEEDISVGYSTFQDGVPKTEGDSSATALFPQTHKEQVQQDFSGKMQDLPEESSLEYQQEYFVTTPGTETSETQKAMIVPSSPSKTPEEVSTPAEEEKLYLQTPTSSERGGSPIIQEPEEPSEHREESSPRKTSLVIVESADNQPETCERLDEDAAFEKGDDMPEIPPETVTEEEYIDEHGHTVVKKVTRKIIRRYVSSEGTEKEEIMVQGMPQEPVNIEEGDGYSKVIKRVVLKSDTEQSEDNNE
UniProt P20073: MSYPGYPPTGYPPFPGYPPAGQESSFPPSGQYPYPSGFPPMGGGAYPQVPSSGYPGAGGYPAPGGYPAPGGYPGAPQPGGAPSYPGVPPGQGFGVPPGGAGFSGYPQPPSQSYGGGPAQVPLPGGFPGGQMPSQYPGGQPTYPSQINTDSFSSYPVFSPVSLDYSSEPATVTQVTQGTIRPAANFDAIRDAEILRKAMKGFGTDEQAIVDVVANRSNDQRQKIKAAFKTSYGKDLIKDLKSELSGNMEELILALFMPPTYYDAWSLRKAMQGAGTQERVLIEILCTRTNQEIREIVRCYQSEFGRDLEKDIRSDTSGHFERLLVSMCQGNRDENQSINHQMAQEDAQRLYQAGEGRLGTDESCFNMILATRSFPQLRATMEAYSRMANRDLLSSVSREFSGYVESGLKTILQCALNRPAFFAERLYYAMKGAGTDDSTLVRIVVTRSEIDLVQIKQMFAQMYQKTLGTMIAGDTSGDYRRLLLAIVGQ
UniProt P78540: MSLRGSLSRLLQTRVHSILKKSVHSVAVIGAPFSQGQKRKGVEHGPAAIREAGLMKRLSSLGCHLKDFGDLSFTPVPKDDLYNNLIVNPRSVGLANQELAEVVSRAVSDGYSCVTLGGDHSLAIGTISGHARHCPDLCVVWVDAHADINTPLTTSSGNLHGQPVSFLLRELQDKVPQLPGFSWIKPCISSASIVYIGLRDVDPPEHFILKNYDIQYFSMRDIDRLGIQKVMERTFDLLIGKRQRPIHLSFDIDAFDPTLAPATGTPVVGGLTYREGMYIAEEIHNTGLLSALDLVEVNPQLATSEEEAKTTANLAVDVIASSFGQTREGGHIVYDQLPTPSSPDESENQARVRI
UniProt Q96GX9: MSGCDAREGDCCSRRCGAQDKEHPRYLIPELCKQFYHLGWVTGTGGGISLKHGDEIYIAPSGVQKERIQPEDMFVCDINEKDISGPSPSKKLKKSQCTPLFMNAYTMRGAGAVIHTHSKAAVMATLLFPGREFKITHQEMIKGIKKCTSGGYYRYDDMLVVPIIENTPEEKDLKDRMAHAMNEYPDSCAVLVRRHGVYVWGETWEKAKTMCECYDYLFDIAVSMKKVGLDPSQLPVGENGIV
UniProt P48444: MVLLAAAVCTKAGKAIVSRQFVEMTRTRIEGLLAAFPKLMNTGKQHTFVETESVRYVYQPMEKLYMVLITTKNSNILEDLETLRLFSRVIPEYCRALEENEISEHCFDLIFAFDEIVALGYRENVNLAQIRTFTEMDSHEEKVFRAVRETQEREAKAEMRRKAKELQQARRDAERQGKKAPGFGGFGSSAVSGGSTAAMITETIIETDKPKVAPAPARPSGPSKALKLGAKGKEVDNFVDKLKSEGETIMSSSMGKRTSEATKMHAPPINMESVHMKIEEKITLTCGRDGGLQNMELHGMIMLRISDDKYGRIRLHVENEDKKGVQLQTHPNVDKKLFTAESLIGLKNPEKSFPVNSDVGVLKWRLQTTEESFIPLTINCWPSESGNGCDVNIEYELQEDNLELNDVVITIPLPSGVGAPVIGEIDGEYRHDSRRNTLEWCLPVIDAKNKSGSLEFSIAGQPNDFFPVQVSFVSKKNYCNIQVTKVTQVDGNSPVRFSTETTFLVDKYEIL
UniProt P42331: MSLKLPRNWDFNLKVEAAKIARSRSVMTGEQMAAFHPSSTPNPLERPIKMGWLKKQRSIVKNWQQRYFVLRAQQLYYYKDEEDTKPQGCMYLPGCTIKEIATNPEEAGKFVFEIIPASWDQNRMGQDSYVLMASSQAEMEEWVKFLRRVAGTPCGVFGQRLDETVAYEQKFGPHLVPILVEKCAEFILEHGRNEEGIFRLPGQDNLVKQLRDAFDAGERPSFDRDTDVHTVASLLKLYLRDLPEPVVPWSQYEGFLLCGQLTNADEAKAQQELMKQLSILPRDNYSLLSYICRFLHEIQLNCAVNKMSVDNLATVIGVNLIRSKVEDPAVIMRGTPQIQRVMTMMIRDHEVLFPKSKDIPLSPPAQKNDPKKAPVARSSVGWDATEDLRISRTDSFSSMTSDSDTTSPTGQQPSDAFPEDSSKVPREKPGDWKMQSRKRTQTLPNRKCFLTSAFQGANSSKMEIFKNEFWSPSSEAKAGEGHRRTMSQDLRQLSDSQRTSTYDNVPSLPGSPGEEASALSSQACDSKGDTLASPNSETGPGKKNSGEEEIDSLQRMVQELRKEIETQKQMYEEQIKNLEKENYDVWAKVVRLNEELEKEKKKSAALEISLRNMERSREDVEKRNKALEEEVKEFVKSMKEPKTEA
UniProt Q9Y587: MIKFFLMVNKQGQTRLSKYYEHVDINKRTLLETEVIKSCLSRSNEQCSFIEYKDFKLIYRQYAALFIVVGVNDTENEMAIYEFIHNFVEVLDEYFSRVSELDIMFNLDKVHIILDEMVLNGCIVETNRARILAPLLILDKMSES

The other results are listed elsewhere or left out.

Compound in one test: C1=CC=C(C=C1)C2=NC(=C(N2)C3=CC=NC=C3)C4=CC(=C(C=C4)Cl)O
In words: log2 fold change, soluble protein after heating vs DMSO (PISA); higher = thermal stabilisation; K562 cells, 10 uM, 30 min; active = over 0.2 and 3.5 SD of the protein, either way, in both replicates (recomputed). The gist of the method: (§1)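 K562 cells at 2×10^6 cells/mL were treated for 30 min with 10 μM compound, and aliquots were heated for 3 min over 48°C-58°C before pooling. Extraction used PBS with 0.5% NP-40 at 4°C, and soluble protein was the supernatant after 21,000xg for 90 min, measured by TMTpro 16plex LC-MS/MS with channel sums equalised. Thermal stability values, relative to control samples and from duplicates, are log2 fold changes.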
Take ARHGAP35 (UniProt Q9NRY4): the log2 fold change was inactive: -0.044.

With ANKH (UniProt Q9HCJ1), the log2 fold change was inactive: 0.128.

Take ARHGAP18 (UniProt Q8N392): the log2 fold change is inactive: -0.105.

In the case of ARHGAP17 (UniProt Q68EM7), the log2 fold change was inactive: -0.011.

As to AP1B1 (UniProt Q10567), the log2 fold change was inactive: 0.036.

In the case of ARFRP1 (UniProt Q13795), the log2 fold change is inactive: 0.057.

For the target APOBEC3C (UniProt Q9NRW3), the log2 fold change was inactive: -0.068.

With ANO6 isoform 2 (UniProt Q4KMQ2), the log2 fold change was inactive: 0.052.

As for ANK2 (UniProt Q01484), the log2 fold change was inactive: 0.011.

As to ANXA7 (UniProt P20073), the log2 fold change is inactive: 0.07.

Turning to AQR (UniProt O60306), the log2 fold change is inactive: 0.028.

Take ANPEP (UniProt P15144): the log2 fold change was inactive: 0.101.

With AP1M1 (UniProt Q9BXS5), the log2 fold change is inactive: 0.016.

Turning to ARHGEF12 (UniProt Q9NZN5), the log2 fold change was inactive: -0.019.

As to ARG2 (UniProt P78540), the log2 fold change was inactive: -0.009.

As to APC (UniProt P25054), the log2 fold change is inactive: 0.056.

Regarding APPL1 (UniProt Q9UKG1), the log2 fold change is inactive: 0.038.

Take ANTXR2 isoform 4 (UniProt P58335): the log2 fold change was inactive: 0.008.

In the case of ANAPC7 (UniProt Q9UJX3), the log2 fold change was inactive: 0.034.

Take ARFGAP1 (UniProt Q8N6T3): the log2 fold change is inactive: -0.069.

On to ARHGEF7 isoform 5 (UniProt Q14155), for which the log2 fold change is inactive: 0.02.

Take ARFGAP3 (UniProt Q9NP61): the log2 fold change is inactive: -0.036.

With ANP32E (UniProt Q9BTT0), the log2 fold change is inactive: 0.

For the target ARHGAP4 isoform 2 (UniProt P98171), the log2 fold change is inactive: -0.016.

Consider AP3M1 (UniProt Q9Y2T2), for which the log2 fold change was inactive: 0.002.

Regarding APIP (UniProt Q96GX9), the log2 fold change was inactive: 0.003.

Take APEH (UniProt P13798): the log2 fold change is inactive: 0.

On to APOH (UniProt P02749), for which the log2 fold change was inactive: -0.1.

Take ANKRD52 (UniProt Q8NB46): the log2 fold change was inactive: -0.001.

APAF1 (UniProt O14727): the log2 fold change was inactive: 0.037.

Regarding ANP32A (UniProt P39687), the log2 fold change was inactive: 0.056.

On to ARCN1 (UniProt P48444), for which the log2 fold change was inactive: 0.01.

Compound in another test: C1=CC=C2C(=C1)C3=NNC4=CC=CC(=C43)C2=O
The test is described as above. The gist of the method:
as §1
On to ARHGAP35 (UniProt Q9NRY4), for which the log2 fold change was inactive: -0.061.

Turning to ANKH (UniProt Q9HCJ1), the log2 fold change was inactive: -0.159.

Take APOL2 (UniProt J3KQL8): the log2 fold change was inactive: 0.119.

Consider ARHGAP18 (UniProt Q8N392), for which the log2 fold change is inactive: 0.104.

On to ARHGAP17 (UniProt Q68EM7), for which the log2 fold change is inactive: -0.019.

On to AP1B1 (UniProt Q10567), for which the log2 fold change is inactive: 0.029.

As to AP4B1 (UniProt Q9Y6B7), the log2 fold change is inactive: -0.01.

ARFRP1 (UniProt Q13795): the log2 fold change was inactive: 0.015.

Turning to APOBEC3C (UniProt Q9NRW3), the log2 fold change is inactive: 0.026.

Take APTX (UniProt Q7Z2E3): the log2 fold change was inactive: -0.079.

For ANO6 isoform 2 (UniProt Q4KMQ2), the log2 fold change was inactive: -0.01.

For the target ANK2 (UniProt Q01484), the log2 fold change is inactive: -0.031.

Turning to ANXA7 (UniProt P20073), the log2 fold change is inactive: 0.012.

AQR (UniProt O60306): the log2 fold change is inactive: -0.058.

In the case of ANPEP (UniProt P15144), the log2 fold change is inactive: -0.042.

ARHGAP25 isoform 4 (UniProt P42331): the log2 fold change was inactive: -0.062.

Consider AP1M1 (UniProt Q9BXS5), for which the log2 fold change was inactive: 0.002.

With ARHGEF12 (UniProt Q9NZN5), the log2 fold change is inactive: -0.021.

ARG2 (UniProt P78540): the log2 fold change is inactive: 0.004.

In the case of APC (UniProt P25054), the log2 fold change was inactive: -0.174.

With APPL1 (UniProt Q9UKG1), the log2 fold change was inactive: -0.029.

On to ANTXR2 isoform 4 (UniProt P58335), for which the log2 fold change was inactive: -0.035.

Regarding ANAPC7 (UniProt Q9UJX3), the log2 fold change is inactive: 0.012.

For the target ARFGAP1 (UniProt Q8N6T3), the log2 fold change was inactive: 0.035.

For the target ARHGEF7 isoform 5 (UniProt Q14155), the log2 fold change was inactive: -0.055.

In the case of ARFGAP3 (UniProt Q9NP61), the log2 fold change is inactive: -0.017.

Turning to ANP32E (UniProt Q9BTT0), the log2 fold change was inactive: -0.014.

Take ARHGAP4 isoform 2 (UniProt P98171): the log2 fold change is inactive: -0.061.

With AP3M1 (UniProt Q9Y2T2), the log2 fold change was inactive: -0.022.

For APH1A (UniProt Q96BI3), the log2 fold change was inactive: -0.09.

APIP (UniProt Q96GX9): the log2 fold change was inactive: 0.011.

As to APEH (UniProt P13798), the log2 fold change was inactive: -0.014.

As to APOH (UniProt P02749), the log2 fold change was inactive: -0.092.

As to AREG (UniProt P15514), the log2 fold change was inactive: -0.083.

In the case of ANKRD52 (UniProt Q8NB46), the log2 fold change was inactive: 0.055.

Consider APAF1 (UniProt O14727), for which the log2 fold change was inactive: 0.011.

Turning to AP4S1 (UniProt Q9Y587), the log2 fold change was inactive: -0.111.

Consider ANP32A (UniProt P39687), for which the log2 fold change is inactive: 0.017.

Turning to ARCN1 (UniProt P48444), the log2 fold change is inactive: -0.022.
